According to article PMC9372748:
Results are given in words; binding and its absence hold for the method and conditions named. Binding seen in cells or lysates may run through a third protein. Some entries that bind do so weakly or less than the wild type.

Amino acid sequences for entries named in this document (tags omitted). A change or cut given only in a name is not applied to a line headed by its entry.
UniProt P35637: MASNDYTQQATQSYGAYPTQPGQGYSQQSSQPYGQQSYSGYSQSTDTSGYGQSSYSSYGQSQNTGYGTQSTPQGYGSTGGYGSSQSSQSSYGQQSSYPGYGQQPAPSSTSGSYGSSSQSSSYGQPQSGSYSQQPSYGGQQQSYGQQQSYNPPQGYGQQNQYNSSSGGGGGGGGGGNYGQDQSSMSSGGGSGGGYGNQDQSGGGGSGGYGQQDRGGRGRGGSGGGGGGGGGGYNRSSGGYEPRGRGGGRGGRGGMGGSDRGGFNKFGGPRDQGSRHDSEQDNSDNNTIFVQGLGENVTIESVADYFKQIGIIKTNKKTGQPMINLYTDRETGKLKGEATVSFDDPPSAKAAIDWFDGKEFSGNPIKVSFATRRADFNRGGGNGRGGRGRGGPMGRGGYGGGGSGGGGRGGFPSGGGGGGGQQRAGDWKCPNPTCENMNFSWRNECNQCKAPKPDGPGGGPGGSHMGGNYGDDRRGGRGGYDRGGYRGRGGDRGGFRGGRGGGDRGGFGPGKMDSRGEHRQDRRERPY
UniProt Q13283: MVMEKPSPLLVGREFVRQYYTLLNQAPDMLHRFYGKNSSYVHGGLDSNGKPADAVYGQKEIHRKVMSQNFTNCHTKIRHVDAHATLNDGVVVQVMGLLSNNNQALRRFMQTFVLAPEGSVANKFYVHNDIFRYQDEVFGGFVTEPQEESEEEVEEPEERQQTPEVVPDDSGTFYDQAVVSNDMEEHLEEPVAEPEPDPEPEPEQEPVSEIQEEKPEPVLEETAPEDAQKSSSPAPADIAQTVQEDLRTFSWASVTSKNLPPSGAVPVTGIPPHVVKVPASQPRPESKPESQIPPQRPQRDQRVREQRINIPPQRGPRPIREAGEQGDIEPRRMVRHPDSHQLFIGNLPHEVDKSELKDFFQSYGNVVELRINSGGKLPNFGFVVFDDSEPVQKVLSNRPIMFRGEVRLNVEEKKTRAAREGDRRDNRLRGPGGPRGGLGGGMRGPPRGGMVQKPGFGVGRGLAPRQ
UniProt P05198: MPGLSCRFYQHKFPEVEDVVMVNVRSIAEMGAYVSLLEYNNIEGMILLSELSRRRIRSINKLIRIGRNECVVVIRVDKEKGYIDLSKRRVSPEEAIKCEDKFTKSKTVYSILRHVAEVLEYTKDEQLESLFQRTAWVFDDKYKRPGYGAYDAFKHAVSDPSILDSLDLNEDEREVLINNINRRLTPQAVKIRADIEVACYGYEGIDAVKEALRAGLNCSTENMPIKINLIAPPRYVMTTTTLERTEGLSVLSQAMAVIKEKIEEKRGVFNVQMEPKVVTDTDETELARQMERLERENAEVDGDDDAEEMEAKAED
UniProt Q01844: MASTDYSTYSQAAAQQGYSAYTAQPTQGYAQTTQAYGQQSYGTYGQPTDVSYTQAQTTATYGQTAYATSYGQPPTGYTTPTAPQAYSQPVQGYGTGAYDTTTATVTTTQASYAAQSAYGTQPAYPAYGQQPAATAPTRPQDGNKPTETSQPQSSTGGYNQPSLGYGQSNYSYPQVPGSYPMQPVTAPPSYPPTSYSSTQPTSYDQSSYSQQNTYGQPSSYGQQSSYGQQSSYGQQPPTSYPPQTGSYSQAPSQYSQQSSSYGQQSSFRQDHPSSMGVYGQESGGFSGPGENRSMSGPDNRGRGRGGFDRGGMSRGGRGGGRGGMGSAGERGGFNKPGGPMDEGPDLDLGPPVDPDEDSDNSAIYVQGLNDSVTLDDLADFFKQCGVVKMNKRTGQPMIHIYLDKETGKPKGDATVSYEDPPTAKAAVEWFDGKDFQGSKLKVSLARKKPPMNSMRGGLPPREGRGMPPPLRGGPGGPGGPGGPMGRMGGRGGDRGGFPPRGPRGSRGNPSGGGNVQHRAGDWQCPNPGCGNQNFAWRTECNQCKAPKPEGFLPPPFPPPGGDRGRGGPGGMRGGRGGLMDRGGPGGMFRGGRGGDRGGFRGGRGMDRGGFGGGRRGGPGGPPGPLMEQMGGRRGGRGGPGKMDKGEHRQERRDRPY

Experiments:
[1] = target: GFP-Strep-FUS P525L (human) (UniProt P35637); test: co-IP; GFP-Twin-Strep-FUS variants transfected in HEK293T; whole-cell lysate (postnuclear supernatant pooled with nuclear lysates, benzonase in the nuclear lysis buffer); MagStrep Type3 (Strep-TactinXT) beads overnight at 4 °C, washes in HGN 165 buffer; immunoblot for endogenous proteins (Fig. 4A)
GFP-Strep-FUS WT (human) [2] = target: GFP-Strep-FUS WT (human) (UniProt P35637); test: as above
[3] = target: GFP-Strep-FUS P525L (human) (UniProt P35637); test: co-IP; GFP-Twin-Strep-FUS variants transfected in HEK293T; lysate fractionated into cytoplasmic and nuclear fractions kept separate; MagStrep Type3 (Strep-TactinXT) beads overnight at 4 °C, washes in HGN 165 buffer; immunoblot for endogenous proteins (Fig. 4B)
GFP-Strep-FUS WT (human) [4] = target: GFP-Strep-FUS WT (human) (UniProt P35637); test: as above

Row | Molecule | binding [1] | binding (GFP-Strep-FUS WT (human) [2]) | binding [3] | binding (GFP-Strep-FUS WT (human) [4])
1 | G3BP1 (from UniProt Q13283 1-466) |  |  | binds | 
2 | eIF2α (from UniProt P05198 1-315) |  |  | binds | binds

The next lines start with the values.

Row | binding [1] | binding (GFP-Strep-FUS WT (human) [2]) | binding [3] | binding (GFP-Strep-FUS WT (human) [4]) | Molecule
3 | binds | binds |  |  | EWS (from UniProt Q01844 1-656)
4 |  |  | binds | binds | UPF1 (protein, UniProt Q92900 1-1129) MSVEAYGPSSQTLTFLDTEEAELLGADTQGSEFEFTDFTLPSQTQTPPGGPGGPGGGGAGGPGGAGAGAAAGQLDAQVGPEGILQNGAVDDSVAKTSQLLAELNFEEDEEDTYYTKDLPIHACSYCGIHDPACVVYCNTSKKWFCNGRGNTSGSHIVNHLVRAKCKEVTLHKDGPLGETVLECYNCGCRNVFLLGFIPAKADSVVVLLCRQPCASQSSLKDINWDSSQWQPLIQDRCFLSWLVKIPSEQEQLRARQITAQQINKLEELWKENPSATLEDLEKPGVDEEPQHVLLRYEDAYQYQNIFGPLVKLEADYDKKLKESQTQDNITVRWDLGLNKKRIAYFTLPKTDSGNEDLVIIWLRDMRLMQGDEICLRYKGDLAPLWKGIGHVIKVPDNYGDEIAIELRSSVGAPVEVTHNFQVDFVWKSTSFDRMQSALKTFAVDETSVSGYIYHKLLGHEVEDVIIKCQLPKRFTAQGLPDLNHSQVYAVKTVLQRPLSLIQGPPGTGKTVTSATIVYHLARQGNGPVLVCAPSNIAVDQLTEKIHQTGLKVVRLCAKSREAIDSPVSFLALHNQIRNMDSMPELQKLQQLKDETGELSSADEKRYRALKRTAERELLMNADVICCTCVGAGDPRLAKMQFRSILIDESTQATEPECMVPVVLGAKQLILVGDHCQLGPVVMCKKAAKAGLSQSLFERLVVLGIRPIRLQVQYRMHPALSAFPSNIFYEGSLQNGVTAADRVKKGFDFQWPQPDKPMFFYVTQGQEEIASSGTSYLNRTEAANVEKITTKLLKAGAKPDQIGIITPYEGQRSYLVQYMQFSGSLHTKLYQEVEIASVDAFQGREKDFIILSCVRANEHQGIGFLNDPRRLNVALTRARYGVIIVGNPKALSKQPLWNHLLNYYKEQKVLVEGPLNNLRESLMQFSKPRKLVNTINPGARFMTTAMYDAREAIIPGSVYDRSSQGRPSSMYFQTHDQIGMISAGPSHVAAMNIPIPFNLVMPPMPPPGYFGQANGPAAGRGTPKGKTGRGGRQKNRFGLPGPSQTNLPNSQASQDVASQPFSQGALTQGYISMSQPSQMSQPGLSQPELSQDSYLGDEFKSQIDVALSQDSTYQGERAYQHGGVTGLSQY
5 |  |  | binds | binds | MOV10 (protein, UniProt Q9HCE1 1-1003) MPSKFSCRQLREAGQCFESFLVVRGLDMETDRERLRTIYNRDFKISFGTPAPGFSSMLYGMKIANLAYVTKTRVRFFRLDRWADVRFPEKRRMKLGSDISKHHKSLLAKIFYDRAEYLHGKHGVDVEVQGPHEARDGQLLIRLDLNRKEVLTLRLRNGGTQSVTLTHLFPLCRTPQFAFYNEDQELPCPLGPGECYELHVHCKTSFVGYFPATVLWELLGPGESGSEGAGTFYIARFLAAVAHSPLAAQLKPMTPFKRTRITGNPVVTNRIEEGERPDRAKGYDLELSMALGTYYPPPRLRQLLPMLLQGTSIFTAPKEIAEIKAQLETALKWRNYEVKLRLLLHLEELQMEHDIRHYDLESVPMTWDPVDQNPRLLTLEVPGVTESRPSVLRGDHLFALLSSETHQEDPITYKGFVHKVELDRVKLSFSMSLLSRFVDGLTFKVNFTFNRQPLRVQHRALELTGRWLLWPMLFPVAPRDVPLLPSDVKLKLYDRSLESNPEQLQAMRHIVTGTTRPAPYIIFGPPGTGKTVTLVEAIKQVVKHLPKAHILACAPSNSGADLLCQRLRVHLPSSIYRLLAPSRDIRMVPEDIKPCCNWDAKKGEYVFPAKKKLQEYRVLITTLITAGRLVSAQFPIDHFTHIFIDEAGHCMEPESLVAIAGLMEVKETGDPGGQLVLAGDPRQLGPVLRSPLTQKHGLGYSLLERLLTYNSLYKKGPDGYDPQFITKLLRNYRSHPTILDIPNQLYYEGELQACADVVDRERFCRWAGLPRQGFPIIFHGVMGKDEREGNSPSFFNPEEAATVTSYLKLLLAPSSKKGKARLSPRSVGVISPYRKQVEKIRYCITKLDRELRGLDDIKDLKVGSVEEFQGQERSVILISTVRSSQSFVQLDLDFNLGFLKNPKRFNVAVTRAKALLIIVGNPLLLGHDPDWKVFLEFCKENGGYTGCPFPAKLDLQQGQNLLQGLSKLSPSTSGPHSHDYLPQEREGEGGLSLQVEPEWRNEL
